In paper PMC11217414:
No constants are given. Whether binding was seen depends on the method and setting. In cells and extracts the contact can be indirect. Some results given as binding are weak or reduced against the parent protein; the word gives no strength.

Protein sequences, listed by entry. Tags and fused reporters are not part of them.
UniProt F5HCV3: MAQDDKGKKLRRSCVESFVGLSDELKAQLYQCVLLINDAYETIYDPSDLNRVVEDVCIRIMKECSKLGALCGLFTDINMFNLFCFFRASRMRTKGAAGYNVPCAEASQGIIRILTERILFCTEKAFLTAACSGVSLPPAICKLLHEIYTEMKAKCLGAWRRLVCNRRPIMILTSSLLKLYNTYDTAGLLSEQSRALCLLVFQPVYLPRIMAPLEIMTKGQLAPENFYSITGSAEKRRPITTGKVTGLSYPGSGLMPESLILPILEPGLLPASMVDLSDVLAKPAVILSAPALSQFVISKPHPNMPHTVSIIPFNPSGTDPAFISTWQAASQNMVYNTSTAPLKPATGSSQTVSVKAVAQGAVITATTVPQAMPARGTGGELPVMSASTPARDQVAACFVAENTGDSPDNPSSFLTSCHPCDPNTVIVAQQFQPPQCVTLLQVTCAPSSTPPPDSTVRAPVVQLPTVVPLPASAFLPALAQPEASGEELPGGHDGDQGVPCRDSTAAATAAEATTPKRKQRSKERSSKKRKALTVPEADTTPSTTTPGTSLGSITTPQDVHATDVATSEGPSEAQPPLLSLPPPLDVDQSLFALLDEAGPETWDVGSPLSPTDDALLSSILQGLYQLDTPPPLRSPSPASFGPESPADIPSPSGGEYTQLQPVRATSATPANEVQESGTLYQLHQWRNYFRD
UniProt Q96BN8: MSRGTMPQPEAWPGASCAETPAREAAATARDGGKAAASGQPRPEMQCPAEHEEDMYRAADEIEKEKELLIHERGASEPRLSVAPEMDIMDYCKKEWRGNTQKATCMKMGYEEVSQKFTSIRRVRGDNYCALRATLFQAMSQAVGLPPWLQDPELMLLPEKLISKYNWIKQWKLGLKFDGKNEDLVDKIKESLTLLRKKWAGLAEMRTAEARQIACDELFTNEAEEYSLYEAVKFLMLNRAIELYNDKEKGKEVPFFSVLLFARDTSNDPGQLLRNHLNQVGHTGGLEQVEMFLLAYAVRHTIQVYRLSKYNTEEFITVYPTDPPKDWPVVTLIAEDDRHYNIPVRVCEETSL

Target: KSHV RTA, endogenous in lytically reactivated iSLK/rKSHV.219 cells (KSHV (human herpesvirus 8)) (UniProt F5HCV3)
Experiment: co-IP

## OTULIN, endogenous in iSLK/rKSHV.219 cells (from UniProt Q96BN8 1-352) (enzyme)
  binding: binds
